Results from cells or extracts need not show a direct contact. For some of these results: A negative result means that nothing was seen under these conditions. Tags and fusion partners may be left off the protein sequences shown. For some of these results: Weaker means in comparison with the reference protein, sequence or condition of that experiment.

What all share (assay): EMSA
In one series the target is T1, deltaEF1 full length (UniProt Q64318).
T1 sequence (looked up): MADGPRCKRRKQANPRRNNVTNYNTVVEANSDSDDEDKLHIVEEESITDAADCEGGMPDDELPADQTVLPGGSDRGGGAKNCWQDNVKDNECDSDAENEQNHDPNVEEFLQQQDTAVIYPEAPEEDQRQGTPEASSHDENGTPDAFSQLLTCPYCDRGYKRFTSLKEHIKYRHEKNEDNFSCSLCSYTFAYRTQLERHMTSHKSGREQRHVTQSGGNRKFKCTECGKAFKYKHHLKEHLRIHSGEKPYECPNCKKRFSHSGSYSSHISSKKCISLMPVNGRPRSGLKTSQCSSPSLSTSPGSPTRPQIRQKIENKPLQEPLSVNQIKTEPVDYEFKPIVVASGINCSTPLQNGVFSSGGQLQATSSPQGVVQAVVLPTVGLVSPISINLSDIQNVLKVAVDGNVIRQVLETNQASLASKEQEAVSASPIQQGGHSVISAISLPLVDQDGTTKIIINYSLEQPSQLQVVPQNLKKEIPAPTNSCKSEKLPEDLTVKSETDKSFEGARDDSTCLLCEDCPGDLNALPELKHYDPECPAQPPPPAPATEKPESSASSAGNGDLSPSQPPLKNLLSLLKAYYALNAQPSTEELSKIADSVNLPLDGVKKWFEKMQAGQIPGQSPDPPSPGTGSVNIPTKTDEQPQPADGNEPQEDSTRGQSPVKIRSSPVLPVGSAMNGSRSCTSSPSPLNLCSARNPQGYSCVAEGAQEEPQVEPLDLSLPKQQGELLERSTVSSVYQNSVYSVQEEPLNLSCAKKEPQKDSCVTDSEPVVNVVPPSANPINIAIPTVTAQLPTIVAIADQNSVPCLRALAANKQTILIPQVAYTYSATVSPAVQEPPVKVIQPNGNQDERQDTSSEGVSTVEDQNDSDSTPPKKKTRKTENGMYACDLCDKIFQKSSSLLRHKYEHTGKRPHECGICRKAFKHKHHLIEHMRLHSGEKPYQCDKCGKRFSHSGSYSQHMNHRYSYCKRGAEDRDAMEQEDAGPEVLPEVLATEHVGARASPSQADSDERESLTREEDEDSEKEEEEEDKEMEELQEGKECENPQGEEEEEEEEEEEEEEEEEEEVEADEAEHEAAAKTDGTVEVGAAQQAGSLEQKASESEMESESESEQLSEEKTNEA
The following applies: protein in a lysate after overexpression, protein details: N-terminal (Myc)6, pCS3, COS1 extract, label: 32P.

Series [1] concerns the target T2, SIP1 full size (SIP1FS) (mouse) (UniProt Q9R0G7).
T2 sequence (looked up): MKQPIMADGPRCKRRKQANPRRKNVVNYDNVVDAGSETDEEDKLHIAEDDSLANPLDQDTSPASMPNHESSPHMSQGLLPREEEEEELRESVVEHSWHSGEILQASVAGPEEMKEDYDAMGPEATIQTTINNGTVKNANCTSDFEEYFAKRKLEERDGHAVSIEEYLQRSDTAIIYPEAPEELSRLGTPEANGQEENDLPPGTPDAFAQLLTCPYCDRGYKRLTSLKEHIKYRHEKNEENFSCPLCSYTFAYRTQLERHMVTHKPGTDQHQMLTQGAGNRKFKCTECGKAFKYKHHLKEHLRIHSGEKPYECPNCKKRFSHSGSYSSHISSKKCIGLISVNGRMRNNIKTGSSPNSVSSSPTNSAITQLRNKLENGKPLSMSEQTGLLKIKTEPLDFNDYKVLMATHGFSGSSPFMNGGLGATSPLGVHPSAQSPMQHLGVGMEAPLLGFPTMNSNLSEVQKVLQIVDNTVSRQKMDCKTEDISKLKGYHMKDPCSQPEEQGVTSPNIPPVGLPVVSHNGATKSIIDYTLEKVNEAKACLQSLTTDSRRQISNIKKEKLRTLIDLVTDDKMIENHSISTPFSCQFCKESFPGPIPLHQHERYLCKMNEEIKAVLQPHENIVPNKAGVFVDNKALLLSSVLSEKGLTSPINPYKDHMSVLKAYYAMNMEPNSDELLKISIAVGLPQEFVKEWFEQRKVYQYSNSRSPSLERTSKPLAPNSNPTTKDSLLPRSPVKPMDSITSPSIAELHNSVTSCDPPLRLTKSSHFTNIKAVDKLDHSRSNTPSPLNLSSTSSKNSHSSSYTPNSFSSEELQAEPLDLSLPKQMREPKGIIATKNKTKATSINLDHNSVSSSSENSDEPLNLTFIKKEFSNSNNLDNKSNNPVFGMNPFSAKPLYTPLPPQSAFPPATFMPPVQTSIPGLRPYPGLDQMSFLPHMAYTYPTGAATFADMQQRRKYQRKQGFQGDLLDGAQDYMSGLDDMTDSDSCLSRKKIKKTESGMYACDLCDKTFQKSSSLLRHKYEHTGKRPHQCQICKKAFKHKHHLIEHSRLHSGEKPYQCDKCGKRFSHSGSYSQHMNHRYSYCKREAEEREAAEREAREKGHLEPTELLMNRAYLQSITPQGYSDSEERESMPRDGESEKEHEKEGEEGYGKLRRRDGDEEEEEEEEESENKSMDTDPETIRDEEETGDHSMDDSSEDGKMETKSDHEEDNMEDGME
The note with it: protein in a lysate after overexpression, protein details: N-terminal (Myc)6, pCS3, COS1 extract, label: 32P.

Another series has as its target T3, SIP1CZF (mouse) (UniProt Q9R0G7).
T3 sequence (looked up): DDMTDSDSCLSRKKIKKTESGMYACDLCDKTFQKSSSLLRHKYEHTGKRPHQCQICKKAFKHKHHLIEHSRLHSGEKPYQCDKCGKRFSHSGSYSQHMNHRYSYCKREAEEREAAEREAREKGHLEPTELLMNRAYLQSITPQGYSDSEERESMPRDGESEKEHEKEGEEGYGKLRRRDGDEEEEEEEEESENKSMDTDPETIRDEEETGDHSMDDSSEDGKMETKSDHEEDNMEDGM
The note with it: equal to Rdm+AREB6; protein in a lysate after overexpression; protein details: (Myc)6, pCS3, COS1 extract; label: 32P.

[2] abbreviates: no effect versus WT, variant of Xbra-WT.
Where [3] appears, read: not among mutants affecting binding, variant of Xbra-WT.
The mark [4] stands for this setting: equal to WT, variant of Xbra-WT.
Where [5] appears, read: equal to WT (p117 reports a 3 bp spacing deletion, Mut3, as weakened), variant of Xbra-WT.
Where [6] appears, read: upstream CACCT mutated, variant of Xbra-WT.
Where [7] appears, read: abolished or strongly affected, variant of alpha4I-WT.
The mark [8] stands for this setting: abolished or strongly affected, 50 ng does not compete, variant of alpha4I-WT.
[9] abbreviates: strongest binding, variant of Xbra-E.

Regarding “ATCCAGGCAGGTGTAAATATAGAATGATAAAGTGACCAGGTGTCAGTTCT (double strand) [Xbra-W]”, the binding result (in the series with deltaEF1 full length (variant of Xbra-WT); in series [1] (setting [2])) was “binds” throughout.
For the sequence “ATCCAGGCCACCTAAAATATATCCTGATAAAGTGACCAGGTGTCAGTTCT (double strand) [Xbra-Q]”, the binding result in series [1] (setting [3]) was “binds”.
For the sequence “ATCCAGGCCACCTAAAATATAGAATGATGTGACCAGGTGTCAGTTCT (double strand) [Xbra-C]”, the binding result (in the series with deltaEF1 full length (setting [4]); in series [1] (setting [5])) was “binds” in each case.
Regarding “ATCCAGGCCACCTAAAATATAGAAGTCTAAAGTGACCAGGTGTCAGTTCT (double strand) [Xbra-R]”, the binding result in series [1] (setting [3]) is listed as “binds”.
Turning to “ATCCAGGCCACCGCCAATATAGAATGATAAAGTGACCAGGTGTCAGTTCT (double strand) [Xbra-N]”, the binding result in series [1] (setting [6]) is on record as “no binding”.
As for “ATCCAGGCCACCTAAAATCGCGAATGATAAAGTGACCAGGTGTCAGTTCT (double strand) [Xbra-P]”, the binding result in series [1] (setting [3]) is reported as “binds”.
“ATCCAGGCCCAATAAAATATAGAATGATAAAGTGACCAGGTGTCAGTTCT (double strand) [Xbra-M]”: the binding result in series [1] (setting [6]) was “no binding”.
“AGAACTGACACCTGGTCACTTTATAAAGTGACCAGGTGTCAGTTCT (double strand) [Xbra-ErE]”: the binding result (in the series with deltaEF1 full length (variant of Xbra-E); in series [1] (variant of Xbra-E)) was “binds” in each case.
“GCAGGGCACACCTGGATTGCATTAGAATGAGACTCACTACCCAGTTCAGATGTGTTGCGT (double strand) [alpha4I-A]”: the binding result (with deltaEF1 full length (setting [7]); in series [1] (setting [8])) was “binds more weakly” each time.
In the case of “TGGCCGGCAGGTGAACCCTCAGCCAATCAGCGGTACGGGGGGCGGTGCTCCGGGGCTCACCTGGCTGCAG (double strand) [Ecad-WT]”, the binding result (in the series with deltaEF1 full length; in series [1]) was “binds” throughout.
Take “ATCCAGGCCACCTAAAATATAGAATGATAAAGTGACTAGGTGTCAGTTCT (double strand) [Xbra-Z]”: the binding result was “binds more weakly” in the series with deltaEF1 full length (strongly decreased, variant of Xbra-WT) and “binds more weakly” in series [1] (CACCTG to CACCTA, strongly decreased, variant of Xbra-WT).
Regarding “ATCCAGGCCACCTATATAGAATGATAAAGTGACCAGGTGTCAGTTCT (double strand) [Xbra-B]”, the binding result (with deltaEF1 full length (setting [4]); in series [1] (setting [5])) was “binds” each time.
On to “ATCCAGGCCACCTAAAATATAGAATGAGGCTCAGACAGGTGTAGAATTCGGCG (double strand) [Xbra-F+AREB6]”, for which the binding result (with SIP1CZF (mouse); in series [1]) was “binds” throughout.
For “TAAAGTGACCAGGTGTCAGTTCTTAAAGTGACCAGGTGTCAGTTCT (double strand) [Xbra-EE]”, the binding result (with deltaEF1 full length (setting [9]); in series [1] (setting [9])) was “binds” throughout.
Consider “ATCCAGGCCACCTAAAATATAGTGACCAGGTGTCAGTTCT (double strand) [Xbra-U]”, for which the binding result (with deltaEF1 full length (setting [4]); in series [1] (setting [4])) was “binds” throughout.
On to “ATCACTGCCACCTAAAATATAGAATGATAAAGTGACCAGGTGTCAGTTCT (double strand) [Xbra-K]”, for which the binding result in series [1] (setting [3]) is on record as “binds”.
In the case of “ATCCAGGCCACCTAAAATATAGAATATTCTATATTTTAGGTGGCCTGGAT (double strand) [Xbra-FrF]”, the binding result (with deltaEF1 full length (variant of Xbra-F); in series [1] (variant of Xbra-F)) was “no binding” each time.
Turning to “ATCCAGGCCACCTAACCGATAGAATGATAAAGTGACCAGGTGTCAGTTCT (double strand) [Xbra-O]”, the binding result in series [1] (setting [3]) was “binds”.
As to “ATCCAGTAAACCTAAAATATAGAATGATAAAGTGACCAGGTGTCAGTTCT (double strand) [Xbra-L]”, the binding result in series [1] (setting [6]) is reported as “no binding”.
On to “ATCCAGGCAGGTGTAAATATAGAATGATAAAGTGACCCACCTACAGTTCT (double strand) [Xbra-V]”, for which the binding result (with deltaEF1 full length (variant of Xbra-WT); in series [1] (setting [2])) was “binds” throughout.
As to “GCACAGGCCACCTAAAATATAGAATGATAAAGTGACCAGGTGTCAGTTCT (double strand) [Xbra-J]”, the binding result in series [1] (setting [3]) is “binds”.
On to “ATCCAGGCCATCTAAAATATAGAATGATAAAGTGACCAGGTGTCAGTTCT (double strand) [Xbra-S]”, for which the binding result (with deltaEF1 full length (variant of Xbra-WT); in series [1] (variant of Xbra-WT)) was “no binding” in each case.
Take “GCAGGGCACATCTGGATTGCATTAGAATGAGACTCACTACCCAGTTCAGGTGTGTTGCGT (double strand) [alpha4I-B]”: the binding result (with deltaEF1 full length (setting [7]); in series [1] (setting [8])) was “binds more weakly” each time.

The values above are taken from patent publication US20030044809A1, “Nucleic acid binding of multi-zinc finger transcription factors” (published 2003).
